The list is a part of this screen's results and no random one: it gathers tests that were run many times, whatever their T/C, doses with no T/C, and many T/C values between a quarter and a half above the control. Other doses and runs of a compound stand elsewhere. T/C gives the treated animals as a percentage of the vehicle group. Some entries give survivors of the animals treated and no T/C: the source holds a T/C of zero for them, seemingly a mark for toxic or unscored doses. Some survivor counts are full or nearly so, which does not show that the dose was tolerated: survival well below the control is almost never listed, so the zero probably covers shortened survival too. Counts of survivors are from the toxicity check (mostly the fifth day) where no day follows; animals may have died later. Schedule codes are those of the source, taken here to give the interval after Q, in days (D) or hours (H), and the number of doses after X. Where survival is the endpoint, this PubChem deposit counts one and a half times the control or more as active, and values a quarter to a half above the control carry no call in these data; other NCI protocols may use other cut-offs.
System: L1210 leukemia ip in BDF1 mice, survival T/C
Assay: NCI In Vivo Anticancer Drug Screen. Data for tumor model L1210 Leukemia (intraperitoneal) in B6D2F1 (BDF1) mice
Details: higher T/C = longer survival
[1] = T/C endpoint: mean survival time, dose: 200.0 mg/kg/injection, schedule: Q01DX009 (ip), vehicle: saline
[2] = T/C endpoint: mean survival time, dose: 200.0 mg/kg/injection, schedule: Q04DX002 (ip), vehicle: Klucel (hydroxypropylcellulose) (HPC)
[3] = T/C endpoint: mean survival time, dose: 400.0 mg/kg/injection, schedule: Q04DX003 (ip), vehicle: saline

COc1ccc(Cc2ccccc2)c(O)c1
survivor count (T/C endpoint: mean survival time, dose: 400.0 mg/kg/injection, schedule: Q01DX009 (ip), vehicle: other): 3 of 6

CN(C)/N=C/c1cccc[n+]1C
survivor count (T/C endpoint: mean survival time, dose: 25.0 mg/kg/injection, schedule: Q01DX009 (ip), vehicle: saline): 0 of 6 | survivor count (T/C endpoint: mean survival time, dose: 50.0 mg/kg/injection, schedule: Q01DX009 (ip), vehicle: saline): 0 of 6 | survivor count (T/C endpoint: mean survival time, dose: 100.0 mg/kg/injection, schedule: Q01DX009 (ip), vehicle: saline): 0 of 6 | survivor count [1]: 0 of 6 | survivor count (T/C endpoint: mean survival time, dose: 400.0 mg/kg/injection, schedule: Q01DX009 (ip), vehicle: saline): 0 of 6

COc1cc([N+](=O)[O-])ccc1NC(=O)Nc1cccc(C(F)(F)F)c1
survivor count (T/C endpoint: mean survival time, dose: 400.0 mg/kg/injection, schedule: Q01DX009 (ip), vehicle: gum acacia): 6 of 6

NC(CCl)=NCc1cccnc1
survivor count (T/C endpoint: mean survival time, dose: 50.0 mg/kg/injection, schedule: Q04DX002 (ip), vehicle: saline): 1 of 3 | survivor count (T/C endpoint: mean survival time, dose: 100.0 mg/kg/injection, schedule: Q04DX002 (ip), vehicle: saline): 0 of 3 | survivor count (T/C endpoint: mean survival time, dose: 200.0 mg/kg/injection, schedule: Q04DX002 (ip), vehicle: saline): 0 of 3 | survivor count (T/C endpoint: mean survival time, dose: 400.0 mg/kg/injection, schedule: Q04DX002 (ip), vehicle: saline): 0 of 3

COc1cc([N+](=O)[O-])ccc1NC(=O)Nc1ccc(S(N)(=O)=O)cc1
survivor count (T/C endpoint: mean survival time, dose: 400.0 mg/kg/injection, schedule: Q04DX002 (ip), vehicle: saline with Tween-80): 3 of 3

CN(C)CCNc1ccccn1
survivor count (T/C endpoint: mean survival time, dose: 300.0 mg/kg/injection, schedule: Q01DX001 (ip), vehicle: saline): 0 of 6

CC(C)OC(=S)SSc1nc2ccccc2s1
survivor count (T/C endpoint: mean survival time, dose: 400.0 mg/kg/injection, schedule: Q04DX003 (ip), vehicle: saline with Tween-80): 3 of 6

CN(CCCl)c1ccc(C2N(Cc3ccccc3)c3ccccc3N2Cc2ccccc2)cc1
survivor count (T/C endpoint: mean survival time, dose: 25.0 mg/kg/injection, schedule: Q01DX001 (ip), vehicle: carboxymethylcellulose (CMC)): 1 of 4 | survivor count (T/C endpoint: mean survival time, dose: 50.0 mg/kg/injection, schedule: Q01DX001 (ip), vehicle: carboxymethylcellulose (CMC)): 0 of 4

C=CCc1cc(CN2CCOCC2)c(O)c(OC)c1
survivor count (T/C endpoint: mean survival time, dose: 50.0 mg/kg/injection, schedule: Q04DX002 (ip), vehicle: Klucel (hydroxypropylcellulose) (HPC)): 3 of 3 | survivor count [2]: 3 of 3

Cc1ccc(Nc2c3ccccc3nc3ccccc23)cc1C
survivor count (T/C endpoint: mean survival time, dose: 200.0 mg/kg/injection, schedule: Q01DX009 (ip), vehicle: Klucel (hydroxypropylcellulose) (HPC)): 3 of 6 | survivor count [2]: 1 of 3 | survivor count (T/C endpoint: mean survival time, dose: 400.0 mg/kg/injection, schedule: Q01DX009 (ip), vehicle: Klucel (hydroxypropylcellulose) (HPC)): 0 of 6 | survivor count (T/C endpoint: mean survival time, dose: 400.0 mg/kg/injection, schedule: Q04DX002 (ip), vehicle: Klucel (hydroxypropylcellulose) (HPC)): 0 of 3

O=[N+]([O-])c1ccccc1N=Nc1c(O)[nH]c2cccc(C(F)(F)F)c12
survivor count (T/C endpoint: mean survival time, dose: 200.0 mg/kg/injection, schedule: Q01DX001 (ip), vehicle: saline): 2 of 6

CC(=O)Nc1c(C)cccc1[N+](=O)[O-]
survivor count (T/C endpoint: mean survival time, dose: 200.0 mg/kg/injection, schedule: Q01DX001 (ip), vehicle: saline with Tween-80): 1 of 3 | survivor count (T/C endpoint: mean survival time, dose: 400.0 mg/kg/injection, schedule: Q01DX001 (ip), vehicle: saline with Tween-80): 0 of 3

CNc1nc(Cl)nc(Cl)n1
survivor count [3]: 1 of 6

CCN(CC)CCOC(=O)c1cccc2[nH]ccc12
survivor count [3]: 2 of 6

CCCCC[C@H](O)/C=C/[C@@H]1[C@@H](C/C=C\CCCC(=O)O)[C@@H](O)C[C@H]1O
survivor count (T/C endpoint: mean survival time, dose: 40.0 mg/kg/injection, schedule: Q04DX002 (ip), vehicle: saline): 0 of 3 | survivor count (T/C endpoint: mean survival time, dose: 80.0 mg/kg/injection, schedule: Q04DX002 (ip), vehicle: saline): 1 of 3 | survivor count (T/C endpoint: mean survival time, dose: 160.0 mg/kg/injection, schedule: Q04DX002 (ip), vehicle: saline): 0 of 3 | survivor count (T/C endpoint: mean survival time, dose: 320.0 mg/kg/injection, schedule: Q04DX002 (ip), vehicle: saline): 0 of 3

CN(CCO)/N=N/c1[nH]ncc1C(N)=O
T/C (T/C endpoint: mean survival time, dose: 80.0 mg/kg/injection, schedule: Q01DX009 (ip), vehicle: other): 130 % of control | T/C (T/C endpoint: mean survival time, dose: 118.0 mg/kg/injection, schedule: Q01DX009 (ip), vehicle: other): 134 % of control | T/C (T/C endpoint: mean survival time, dose: 172.0 mg/kg/injection, schedule: Q01DX009 (ip), vehicle: saline with Tween-80): 143 % of control | T/C (T/C endpoint: mean survival time, dose: 268.0 mg/kg/injection, schedule: Q01DX009 (ip), vehicle: other): 145 % of control | T/C (T/C endpoint: mean survival time, dose: 1889.0 mg/kg/injection, schedule: Q01DX001 (ip), vehicle: saline with Tween-80): 141 % of control | T/C (T/C endpoint: median survival time, dose: 125.0 mg/kg/injection, schedule: Q01DX009 (ip), vehicle: saline): 131 % of control

CN(C)CC(=O)c1ccc(Cl)cc1
survivor count [1]: 0 of 3
